Assay results: patent publication US8759301B2, “Gene fusion targeted therapy” (The Regents of The University of Michigan, priority 2010, dated 2014)
Where two headings read alike, the source gives them in different places. The source gives many values for each of these; only a part stands here.

Chains of the proteins cited; added tags and fusions are not shown. Lines headed by an entry give the natural chain unless they say otherwise; changes in a name come on top.
UniProt P10275: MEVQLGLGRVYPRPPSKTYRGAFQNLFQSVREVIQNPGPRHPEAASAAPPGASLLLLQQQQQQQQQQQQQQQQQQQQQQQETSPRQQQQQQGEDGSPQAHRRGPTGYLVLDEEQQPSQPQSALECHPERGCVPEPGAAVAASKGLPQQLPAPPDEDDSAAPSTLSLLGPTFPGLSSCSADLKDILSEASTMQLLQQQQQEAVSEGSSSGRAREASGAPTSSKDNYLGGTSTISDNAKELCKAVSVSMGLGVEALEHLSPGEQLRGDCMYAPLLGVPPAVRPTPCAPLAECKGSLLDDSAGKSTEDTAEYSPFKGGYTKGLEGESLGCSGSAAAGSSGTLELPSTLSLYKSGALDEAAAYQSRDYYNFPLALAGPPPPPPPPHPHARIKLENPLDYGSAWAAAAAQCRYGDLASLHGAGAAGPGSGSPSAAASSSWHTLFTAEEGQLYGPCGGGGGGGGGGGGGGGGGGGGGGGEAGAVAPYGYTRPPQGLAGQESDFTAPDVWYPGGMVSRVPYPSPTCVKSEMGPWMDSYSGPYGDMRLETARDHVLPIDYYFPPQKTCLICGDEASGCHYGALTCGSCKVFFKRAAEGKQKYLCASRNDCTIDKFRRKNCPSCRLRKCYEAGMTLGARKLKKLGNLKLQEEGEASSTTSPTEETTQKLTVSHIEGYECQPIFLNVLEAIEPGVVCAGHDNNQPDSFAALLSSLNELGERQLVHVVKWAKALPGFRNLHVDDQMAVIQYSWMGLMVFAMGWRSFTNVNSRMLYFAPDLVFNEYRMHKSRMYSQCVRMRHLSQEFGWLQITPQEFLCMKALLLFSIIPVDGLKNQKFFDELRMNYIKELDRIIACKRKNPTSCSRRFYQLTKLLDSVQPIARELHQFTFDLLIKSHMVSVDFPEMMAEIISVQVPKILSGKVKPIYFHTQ

Biological target: AR (Homo sapiens, UniProt P10275)
Conditions: VCaP R1881-treated
Method: For ERG ChIP, LNCaP, VCaP, RWPE+ERG, and RWPE+GUS cells grown in corresponding regular medium were used.
ChIP samples were prepared for sequencing using the Genomic DNA sample prep kit (Illumina) following manufacturers protocols. ChIP-Sequencing was performed using Illumina Genome Analyzer according to standard manufacturer's procedures. The raw sequencing image data were analyzed by the Illumina analysis pipeline, aligned to the unmasked human reference genome (NCBI v36, hg18) using the ELAND software (Illumina) to generate sequence reads of 25-32 bps.
It was first counted how many uniquely mapped reads are there in each sample and the ratio of the two counts was used as the normalizing factor to bring the total number of useable reads to the same level in both samples. Next each uniquely mapped read was extended directionally to form a 200 bp hypothetical DNA fragment (HDF) in each sample. 200 is assumed to be the average length of size-selected DNA pieces during sample preparation (175-225 bp).
Under the null hypothesis of no enrichment in the stimulated sample versus unstimulated samples, reads from both samples are assumed to land on the genome following the same Poisson distribution (after corrected for the read counts in the unstimulated sample). The average sequencing depth across the whole genome is used as the background rate estimate r0. The probability of observing the read difference between two samples in each coverage region was calculated numerically.
HMM was applied to define where enriched regions start and end. To be specific, the entire genome was partitioned into 25 bp bin and the read coverage is counted in each bin in the two samples. The two states are enriched region and background. The observed data are HDF coverage difference. In the enriched regions, it was expected that enrichment of HDFs would be present in the stimulated sample but not in the unstimulated samples. Therefore the differences are assumed to be the result of two different Poisson distributions with rates r1 and r2, r1>r2. In background, the differences are assumed to come from two identical Poisson distribution with rate r0. The transition probabilities are estimated empirically. From the output of HMM, regions are selected based on posterior probability of being in the enriched regions.

C[C@]1(O)CC[C@H]2[C@@H]3CCC4=CC(=O)CCC4=C3C=C[C@@]21C [R1881, methyltrienolone]
number of AR binding sites (distance to TSS 7 kb): 87 | number of AR binding sites (distance to TSS 8 kb): 82 | number of AR binding sites (distance to TSS 9 kb): 89 | number of AR binding sites (distance to TSS 10 kb): 69 | number of AR binding sites (distance to TSS 11 kb): 59 | number of AR binding sites (distance to TSS 12 kb): 69 | number of AR binding sites (distance to TSS 13 kb): 62 | number of AR binding sites (distance to TSS 14 kb): 67 | number of AR binding sites (distance to TSS 15 kb): 56 | number of AR binding sites (distance to TSS 16 kb): 49 | number of AR binding sites (distance to TSS 17 kb): 57 | number of AR binding sites (distance to TSS 18 kb): 55 | number of AR binding sites (distance to TSS 19 kb): 38 | number of AR binding sites (distance to TSS 20 kb): 49 | number of AR binding sites (distance to TSS 21 kb): 42 | number of AR binding sites (distance to TSS 22 kb): 45 | number of AR binding sites (distance to TSS 23 kb): 47 | number of AR binding sites (distance to TSS 24 kb): 48 | number of AR binding sites (distance to TSS 25 kb): 34 | number of AR binding sites (distance to TSS 26 kb): 47 | number of AR binding sites (distance to TSS 27 kb): 46 | number of AR binding sites (distance to TSS 28 kb): 49 | number of AR binding sites (distance to TSS 29 kb): 28 | number of AR binding sites (distance to TSS 30 kb): 37 | number of AR binding sites (distance to TSS 31 kb): 31 | number of AR binding sites (distance to TSS 32 kb): 40 | number of AR binding sites (distance to TSS 33 kb): 42 | number of AR binding sites (distance to TSS 34 kb): 27 | number of AR binding sites (distance to TSS 35 kb): 22 | number of AR binding sites (distance to TSS 36 kb): 33 | number of AR binding sites (distance to TSS 37 kb): 34 | number of AR binding sites (distance to TSS 38 kb): 25 | number of AR binding sites (distance to TSS 39 kb): 31 | number of AR binding sites (distance to TSS 40 kb): 33 | number of AR binding sites (distance to TSS 41 kb): 21 | number of AR binding sites (distance to TSS 42 kb): 26 | number of AR binding sites (distance to TSS 43 kb): 22 | number of AR binding sites (distance to TSS 44 kb): 19 | number of AR binding sites (distance to TSS 45 kb): 31 | number of AR binding sites (distance to TSS 46 kb): 20 | number of AR binding sites (distance to TSS 47 kb): 22 | number of AR binding sites (distance to TSS 48 kb): 22 | number of AR binding sites (distance to TSS 49 kb): 26 | number of AR binding sites (distance to TSS 50 kb): 22 | number of AR binding sites (distance to TSS 51 kb): 23 | number of AR binding sites (distance to TSS 52 kb): 20 | number of AR binding sites (distance to TSS 53 kb): 20 | number of AR binding sites (distance to TSS 54 kb): 16 | number of AR binding sites (distance to TSS 55 kb): 16 | number of AR binding sites (distance to TSS 56 kb): 24 | number of AR binding sites (distance to TSS 57 kb): 14 | number of AR binding sites (distance to TSS 58 kb): 25 | number of AR binding sites (distance to TSS 59 kb): 16 | number of AR binding sites (distance to TSS 60 kb): 19 | number of AR binding sites (distance to TSS 61 kb): 24 | number of AR binding sites (distance to TSS 62 kb): 20 | number of AR binding sites (distance to TSS 63 kb): 18 | number of AR binding sites (distance to TSS 64 kb): 11 | number of AR binding sites (distance to TSS 65 kb): 15 | number of AR binding sites (distance to TSS 66 kb): 20 | number of AR binding sites (distance to TSS 67 kb): 19 | number of AR binding sites (distance to TSS 68 kb): 15 | number of AR binding sites (distance to TSS 69 kb): 18 | number of AR binding sites (distance to TSS 70 kb): 16 | number of AR binding sites (distance to TSS 71 kb): 11 | number of AR binding sites (distance to TSS 72 kb): 22 | number of AR binding sites (distance to TSS 73 kb): 19 | number of AR binding sites (distance to TSS 74 kb): 12 | number of AR binding sites (distance to TSS 75 kb): 18 | number of AR binding sites (distance to TSS 76 kb): 19 | number of AR binding sites (distance to TSS 77 kb): 15 | number of AR binding sites (distance to TSS 78 kb): 18 | number of AR binding sites (distance to TSS 79 kb): 19 | number of AR binding sites (distance to TSS 80 kb): 7 | number of AR binding sites (distance to TSS 81 kb): 15 | number of AR binding sites (distance to TSS 82 kb): 9 | number of AR binding sites (distance to TSS 83 kb): 19 | number of AR binding sites (distance to TSS 84 kb): 12 | number of AR binding sites (distance to TSS 85 kb): 10 | number of AR binding sites (distance to TSS 86 kb): 12 | number of AR binding sites (distance to TSS 87 kb): 18 | number of AR binding sites (distance to TSS 88 kb): 8 | number of AR binding sites (distance to TSS 89 kb): 8 | number of AR binding sites (distance to TSS 90 kb): 11 | number of AR binding sites (distance to TSS 91 kb): 16 | number of AR binding sites (distance to TSS 92 kb): 14 | number of AR binding sites (distance to TSS 93 kb): 10 | number of AR binding sites (distance to TSS 94 kb): 6 | number of AR binding sites (distance to TSS 95 kb): 19 | number of AR binding sites (distance to TSS 96 kb): 9 | number of AR binding sites (distance to TSS 97 kb): 5 | number of AR binding sites (distance to TSS 98 kb): 11 | number of AR binding sites (distance to TSS 99 kb): 12 | number of AR binding sites (distance to TSS 100 kb): 7 | number of AR binding sites (distance to TSS 101 kb): 18 | number of AR binding sites (distance to TSS 102 kb): 10
